Assay [1] addresses T1, Scc2-12Myc (budding yeast) (UniProt Q04002).
T1 sequence: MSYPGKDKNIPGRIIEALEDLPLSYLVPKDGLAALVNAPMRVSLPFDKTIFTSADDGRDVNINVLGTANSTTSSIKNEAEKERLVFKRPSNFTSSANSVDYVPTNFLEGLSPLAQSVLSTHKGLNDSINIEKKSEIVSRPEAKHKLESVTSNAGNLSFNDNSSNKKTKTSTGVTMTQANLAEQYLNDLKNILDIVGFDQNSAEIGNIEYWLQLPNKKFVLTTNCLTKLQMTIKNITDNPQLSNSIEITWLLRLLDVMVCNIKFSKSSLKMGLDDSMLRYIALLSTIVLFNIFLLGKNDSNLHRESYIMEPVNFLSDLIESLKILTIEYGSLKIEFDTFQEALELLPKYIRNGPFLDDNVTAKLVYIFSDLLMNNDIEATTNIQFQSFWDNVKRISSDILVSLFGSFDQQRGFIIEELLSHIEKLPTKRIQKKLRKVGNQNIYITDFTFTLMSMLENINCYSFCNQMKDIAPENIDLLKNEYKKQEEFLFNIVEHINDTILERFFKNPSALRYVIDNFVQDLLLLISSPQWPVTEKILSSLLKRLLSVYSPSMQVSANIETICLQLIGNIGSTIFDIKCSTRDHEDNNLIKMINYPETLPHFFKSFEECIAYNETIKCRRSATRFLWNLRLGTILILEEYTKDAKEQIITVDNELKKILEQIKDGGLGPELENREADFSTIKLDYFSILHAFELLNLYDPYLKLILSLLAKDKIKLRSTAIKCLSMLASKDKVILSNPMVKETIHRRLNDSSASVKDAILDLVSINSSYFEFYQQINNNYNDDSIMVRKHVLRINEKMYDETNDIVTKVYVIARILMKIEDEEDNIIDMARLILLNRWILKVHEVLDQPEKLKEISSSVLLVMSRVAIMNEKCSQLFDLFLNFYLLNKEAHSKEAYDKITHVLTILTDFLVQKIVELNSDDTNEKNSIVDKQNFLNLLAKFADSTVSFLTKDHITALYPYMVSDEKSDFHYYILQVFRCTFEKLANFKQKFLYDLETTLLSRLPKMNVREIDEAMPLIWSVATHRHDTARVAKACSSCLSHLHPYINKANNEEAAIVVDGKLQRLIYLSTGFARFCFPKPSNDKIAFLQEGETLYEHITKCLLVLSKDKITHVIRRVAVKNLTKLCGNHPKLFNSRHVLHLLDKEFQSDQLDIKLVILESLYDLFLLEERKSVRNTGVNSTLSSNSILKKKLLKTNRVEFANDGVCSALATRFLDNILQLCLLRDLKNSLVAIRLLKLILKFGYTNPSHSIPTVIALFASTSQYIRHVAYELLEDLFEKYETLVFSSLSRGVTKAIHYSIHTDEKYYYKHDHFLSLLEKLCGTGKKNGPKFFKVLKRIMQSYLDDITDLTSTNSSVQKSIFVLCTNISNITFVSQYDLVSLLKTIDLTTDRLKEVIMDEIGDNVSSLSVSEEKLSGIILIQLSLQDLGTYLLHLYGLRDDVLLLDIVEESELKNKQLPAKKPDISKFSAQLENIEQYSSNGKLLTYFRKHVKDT
In words: co-IP; anti-MYC immunoprecipitation of Scc2-12Myc from yeast lysates, with or without depletion of Scc3-3V5-AID by 1 mM IAA; Western blot with anti-Mcd1. For orientation: Immunoblotting shows a protein as a band on a membrane.

In a further assay the target is T2, Scc3-6HA (budding yeast) (UniProt P40541).
T2 sequence: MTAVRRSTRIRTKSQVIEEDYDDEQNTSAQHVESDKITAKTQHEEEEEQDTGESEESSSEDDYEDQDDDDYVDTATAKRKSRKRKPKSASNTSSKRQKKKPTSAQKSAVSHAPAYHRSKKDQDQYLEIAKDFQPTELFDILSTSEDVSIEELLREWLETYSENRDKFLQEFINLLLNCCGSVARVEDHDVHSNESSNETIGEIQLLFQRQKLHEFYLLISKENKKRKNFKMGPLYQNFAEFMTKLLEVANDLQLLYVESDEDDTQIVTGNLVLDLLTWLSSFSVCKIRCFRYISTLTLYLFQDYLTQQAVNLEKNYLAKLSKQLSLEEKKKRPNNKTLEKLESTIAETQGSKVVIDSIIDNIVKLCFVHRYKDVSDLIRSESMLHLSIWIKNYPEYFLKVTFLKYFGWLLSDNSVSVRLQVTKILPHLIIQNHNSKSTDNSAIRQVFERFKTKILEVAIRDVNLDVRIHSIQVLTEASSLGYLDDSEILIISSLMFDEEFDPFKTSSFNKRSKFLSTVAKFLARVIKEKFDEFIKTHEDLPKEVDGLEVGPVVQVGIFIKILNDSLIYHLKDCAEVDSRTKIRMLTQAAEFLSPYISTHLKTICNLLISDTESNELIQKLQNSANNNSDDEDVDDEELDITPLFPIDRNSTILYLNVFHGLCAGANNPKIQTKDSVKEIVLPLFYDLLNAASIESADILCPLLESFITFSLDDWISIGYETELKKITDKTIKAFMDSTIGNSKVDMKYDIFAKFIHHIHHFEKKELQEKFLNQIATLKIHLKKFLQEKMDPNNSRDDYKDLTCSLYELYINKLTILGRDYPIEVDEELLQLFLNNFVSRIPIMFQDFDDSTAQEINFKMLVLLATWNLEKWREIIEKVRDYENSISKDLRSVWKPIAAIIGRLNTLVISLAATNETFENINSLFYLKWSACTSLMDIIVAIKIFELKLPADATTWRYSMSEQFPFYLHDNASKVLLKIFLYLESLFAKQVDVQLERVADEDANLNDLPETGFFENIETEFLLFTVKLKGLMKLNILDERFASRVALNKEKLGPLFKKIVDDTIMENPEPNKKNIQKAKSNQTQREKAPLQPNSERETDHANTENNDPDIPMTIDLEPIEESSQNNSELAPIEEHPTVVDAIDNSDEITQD
The assay can be described thus: co-IP; anti-HA immunoprecipitation of Scc3-6HA (wild type or mutant) from yeast lysates, mid-log cells; IPH150 or IPH50 buffer (50 mM Tris pH 8.0, 150/50 mM NaCl, 5 mM EDTA, 0.5% NP-40, 1 mM DTT), 4°C, protein A/G agarose, Western blot of partners; also in wpl1Δ strains and after depletion of Pds5-3V5-AID with 1 mM IAA.

The record followed here is paper PMC4352044.

These are yes or no findings as the source states them, for the method shown. In cells and extracts the contact can be indirect. Some binding calls cover weakened binding; strength is not graded here. For some assays here: Tags and fused reporters may be left off the sequences shown.

B1: Mcd1 (protein, UniProt Q12158 1-566)
chain: MVTENPQRLTVLRLATNKGPLAQIWLASNMSNIPRGSVIQTHIAESAKEIAKASGCDDESGDNEYITLRTSGELLQGIVRVYSKQATFLLTDIKDTLTKISMLFKTSQKMTSTVNRLNTVTRVHQLMLEDAVTEREVLVTPGLEFLDDTTIPVGLMAQENSMERKVQGAAPWDTSLEVGRRFSPDEDFEHNNLSSMNLDFDIEEGPITSKSWEEGTRQSSRNFDTHENYIQDDDFPLDDAGTIGWDLGITEKNDQNNDDDDNSVEQGRRLGESIMSEEPTDFGFDLDIEKEAPAGNIDTITDAMTESQPKQTGTRRNSKLLNTKSIQIDEETENSESIASSNTYKEERSNNLLTPQPTNFTTKRLWSEITESMSYLPDPILKNFLSYESLKKRKIHNGREGSIEEPELNVSLNLTDDVISNAGTNDNSFNELTDNMSDFVPIDAGLNEAPFPEENIIDAKTRNEQTTIQTEKVRPTPGEVASKAIVQMAKILRKELSEEKEVIFTDVLKSQANTEPENITKREASRGFFDILSLATEGCIGLSQTEAFGNIKIDAKPALFERFINA
With B1, the binding entry (in assay [1]; with Scc3-6HA (budding yeast)) was “binds” throughout.
